PubChem BioAssay AID2517 (National Center for Advancing Translational Sciences (NCATS), 2010)
Values joined by “and” are separate entries in the source; they are usually repeats but may differ in a detail not shown here. Identical values can stand only once. Among all 350,000 compounds or so, about 1,200 (0.34%) were called active. The shares of active, inactive and inconclusive entries below differ from those in the screen. The call rests on the fitted dose curve; in most records, active means well fitted inhibition curve with a large enough effect; inconclusive means small, poorly fitted or top-dose-only effect; inactive means no such curve, though single readings can be large or run the other way. Where the call is inconclusive, the potency comes from a doubtful curve fit.

The chains behind the UniProt entries cited, without tags or fusion partners.
UniProt P27695, whole entry, looked up: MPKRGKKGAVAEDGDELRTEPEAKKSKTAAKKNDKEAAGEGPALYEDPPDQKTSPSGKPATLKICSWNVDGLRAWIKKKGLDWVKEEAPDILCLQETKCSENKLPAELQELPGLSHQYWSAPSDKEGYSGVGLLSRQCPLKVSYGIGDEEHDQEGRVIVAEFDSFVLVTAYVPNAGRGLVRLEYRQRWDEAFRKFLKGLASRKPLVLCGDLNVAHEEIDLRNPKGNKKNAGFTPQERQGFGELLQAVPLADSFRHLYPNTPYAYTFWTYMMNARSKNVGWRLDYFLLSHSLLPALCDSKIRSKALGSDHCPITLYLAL

biological target: DNA repair nuclease/redox regulator APEX1 (Homo sapiens) (UniProt P27695); experiment: qHTS Assay for Inhibitors of the Human Apurinic/apyrimidinic Endonuclease 1 (APE1); details: recombinant APE1, TAMRA/BHQ-2 abasic DNA cleavage fluorescence; activity change, negative = inhibition: at 65.8 µM (top of the series); further: nearly all actives have a fitted effect of over 55% in size;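 on activity change, negative = inhibition: plate controls were vehicle for no effect and reference inhibitor for full effect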
In short: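 Substrate: short duplex with […] THF abasic site, 5'-TAMRA and 3'-BHQ-2, 50 nM final. APE1 at 0.75 nM, preincubated 15 min RT with compound. Fluorescence increase from first to third read measured activity.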
Potency means the concentration at half of the fitted maximal effect.

SMILES | Potency | activity change, negative = inhibition
C[C@@]1(CO)[C@H](O)CC[C@@]2(C)[C@H]1CC[C@H]1C[C@@H]3C[C@@]12CC[C@]3(O)CO | inconclusive: 39.8 µM [inhibitor, single point] | –
CC(C)(C)NCC(O)c1ccccc1Cl (stereo not given) | inactive | –
O=C1NC(=O)C(=O)C(=O)N1 | – | inactive: -16%
CN(C)c1ccc(N(C)C)cc1 | inconclusive: 31.6 µM [inhibitor, partial curve] | –
C[C@H](CCC(=O)O)[C@H]1CC[C@@H]2[C@H]3CC[C@H]4C[C@H](O)CC[C@]4(C)[C@@H]3CC[C@@]21C | inconclusive: 39.8 µM [inhibitor, single point] | –
COc1cc2c(cc1OC)[C@@H]1C(=O)c3ccc4oc(C(C)C)cc4c3OC1CO2 (stereo not given in full) | inconclusive: 28.2 µM [inhibitor, partial curve] | –
O=C1NC(=S)N(c2ccc(F)cc2)C(=O)/C1=C/c1ccco1 | active: 0.212 µM | –
Cc1ccc(N2C(=O)NC(=O)/C(=C/C=C/c3ccco3)C2=O)cc1 | inconclusive: 39.8 µM [inhibitor, single point] | –
COc1cc2c(c(OC)c1OC)-c1ccc(O)c(=O)cc1[C@@H](NC(C)=O)CC2 | inactive | –
CN1C(=O)/C(=C/c2ccc(N3CCCCCC3)o2)C(=O)NC1=S | inconclusive: 28.2 µM [inhibitor, single point] | –
C[N+](C)(C)CCCl | – | inactive: 0.286%
NCc1cc(=O)[nH]o1 | inconclusive: 44.7 µM [inhibitor, single point] | –
O=C1NC(=S)NC(=O)C1=Cc1cccn1-c1ccc(O)cc1 | inconclusive: 31.6 µM [inhibitor, partial curve, poor fit] | –
O=C(c1ccc(CS(=O)(=O)c2ccccc2)o1)N1CCC2(CC1)OCCO2 | inconclusive: 39.8 µM [inhibitor, single point] | –
Cc1cc(NC(=O)COC(=O)c2c(C)nn(Cc3ccccc3)c2Cl)no1 | inconclusive: 39.8 µM [inhibitor, single point] | –
C#CCOCCOCCOCCNc1nc(N2CCN(C(=O)CCCCCCCCCCNC(=O)[C@H]([C@@H](C)CC)n3cc(CCCCN=C(N)N)nn3)CC2)nc(N2CCN(C(=O)CCCCCCCCCCNC(=O)[C@H](CO)n3cc(CCCCCN)nn3)CC2)n1 | inconclusive: 37.7 µM [inhibitor, single point] | –
CCCC(=O)c1cc(CP(=O)(OCC)OCC)oc1C | inconclusive: 2 µM [inhibitor, partial curve] | –
CC(=NCc1cccnc1)c1c(O)n(-c2ccccc2C)c(=O)[nH]c1=O | inconclusive: 3.16 µM [inhibitor, single point] | –
Cc1c(F)c(F)c(COC(=O)C2C(/C=C(\Cl)C(F)(F)F)C2(C)C)c(F)c1F (stereo not given) | – | inactive: -11.2%
C=CCn1c(O)c(C=NCCCn2ccnc2)c(=O)[nH]c1=O | – | inactive: 5.37%
O=C1C(=O)c2ccccc2-c2ccccc21 | inconclusive: 2.82 µM [inhibitor, partial curve, poor fit] | –
CC(C)=CCCC1(C)C=Cc2c(O)c3c(c(CC=C(C)C)c2O1)OC12C(=CC4CC1C(C)(C)OC2(C/C=C(/C)C(=O)O)C4O)C3=O (stereo not given) | – | inactive: 1.13%
C=C1C(=O)O[C@@H]2C[C@@H](C)[C@@H]3C=CC(=O)[C@@]3(C)[C@@H](OC(=O)CC(=O)O[C@H]3[C@@H]4C(=C)C(=O)O[C@@H]4C[C@@H](C)[C@@H]4C=CC(=O)[C@]43C)[C@H]12 | – | inactive: -11.4%
CN1C2CCC1CC(OC(=O)CCN1CCCC1)C2 (stereo not given) | inconclusive: 0.0141 µM [inhibitor, full curve, poor fit] | –

SMILES | Potency | activity change, negative = inhibition
O=C(COc1ccc2ccc(=O)oc2c1)N1CCC(C(=O)O)(c2ccccc2)CC1 | – | inactive: -3.58%
OC(c1ccccc1)(c1ccccc1)c1ccncc1 | inconclusive: 4.47 µM [inhibitor, single point] | –
CC(C)c1ccc(-n2c(O)c(/C=N/NC(=O)c3ccccc3O)c(=O)[nH]c2=S)cc1 | inconclusive: 22.4 µM [inhibitor, single point] | –
O=C(c1ccccc1)c1cn(CC(=O)N2CCOCC2)c2ccccc12 | inconclusive: 3.98 µM [inhibitor, single point] | –
CC(C)N1C(=O)/C(=C/C=C/c2ccco2)C(=O)N(Cc2ccco2)C1=O | inconclusive: 25.1 µM [inhibitor, single point] | –
CCC(=NCC1CCCO1)c1c(O)[nH]c(=O)[nH]c1=O (stereo not given) | inconclusive: 0.562 µM [inhibitor, full curve, poor fit] | –
CN1CCN(CCC(=O)OC2CC3CCC(C2)N3C)CC1 (stereo not given) | inconclusive: 44.7 µM [inhibitor, single point] | –
O=C1Nc2ccccc2Sc2ccccc21 | inconclusive: 3.16 µM [inhibitor, full curve] | –
COc1ccc(NC(=O)N2CCC3(CC2)OCCO3)cc1OC | inconclusive: 7.94 µM [inhibitor, single point] | –
CSSC | – | inactive: -4.33%
O=c1[nH]c(=O)n(C2CCCCCC2)c(O)c1C=NCc1cccnc1 | – | inactive: 0.949%
COc1cc(C=C2C(=O)NC(=O)NC2=O)ccc1OCc1ccc([N+](=O)[O-])cc1 | – | inactive: -6.58%
N#CC1=C(N)Oc2c(c(=O)sc3ccccc23)C1c1cccnc1 (stereo not given) | inconclusive: 10 µM [inhibitor, partial curve] | –
CSc1nnc([C@@H](N)Cc2ccccc2)o1 | inconclusive: 25.1 µM [inhibitor, single point] | –
CNCC(N)C(=O)O (stereo not given) | – | inactive: 3.64%
Cc1cc(/C=C2\C(=O)NC(=O)N(c3ccc(Br)cc3)C2=O)c(C)n1C | inconclusive: 44.7 µM [inhibitor, single point] | –
O=c1c2ccccc2nc(/C=C/c2cccnc2)n1Cc1ccccc1 | inconclusive: 39.8 µM [inhibitor, single point] | –
Cc1cccc(C)c1OCc1n[nH]c(=S)n1N | – | inactive: 8.47%
Cc1cccc(N)c1C | – | inactive: 2.81%
O=c1c2ccccc2nc(CSc2ncnc3nc[nH]c23)n1-c1ccccc1Cl | – | inactive: -2.56%
O=C1NC(=S)NC(=O)C1=Cc1ccc2c(c1)CCN2CCCCl | active: 17.8 µM | –
C[n+]1c2ccccc2nc2ccc(NCCO)cc21 | active: 26.7 µM | –
Oc1ccc(CC2CC3CCN2CC3)cc1O (stereo not given) | – | inactive: -0.95%
Cc1ccc(NC(=O)CSc2nnc([C@@H](N)Cc3c[nH]c4ccccc34)o2)c(C)c1 | inconclusive: 0.0891 µM [inhibitor, full curve, poor fit] | –

SMILES | Potency | activity change, negative = inhibition
COc1ccc(N2C(=O)NC(=O)/C(=C/c3ccc([N+](=O)[O-])s3)C2=O)cc1 | inconclusive: 35.5 µM [inhibitor, single point] | –
Cc1cc(/C=C2\C(=O)NC(=O)N(c3ccc(F)cc3)C2=O)c(C)n1-c1ccc(C(=O)O)cc1 | – | inactive: 3.06%
CNC(=O)c1cccn(Cc2cccc(C(F)(F)F)c2)c1=O | – | inactive: 7.24%
O=C1C=C2C(=CCOC2O)O1 (stereo not given) | inconclusive: 31.6 µM [inhibitor, single point] | –
NC(Cc1cc(O)c(O)cc1O)C(=O)O (stereo not given) | active: 126 nM and active: 106 nM | –
CCC(C)C(=O)OC1C2CC3=C4CC(=O)OC(c5ccoc5)[C@]4(C)CCC3[C@@](C)(C2=O)C(CC(=O)OC)C1(C)C (stereo not given in full) | inconclusive: 39.8 µM [inhibitor, partial curve] | –
C/C=C1/C[C@@H](C)[C@](O)(CO)C(=O)OCC2=CCN3CC[C@@H](OC1=O)C23 (stereo not given in full) | inconclusive: 39.8 µM [inhibitor, single point] and inconclusive: 25.1 µM [inhibitor, partial curve] | –
CC(C)(C)n1cc(C(=O)c2ccccc2)cc1-c1ccccc1 | inconclusive: 3.98 µM [inhibitor, single point] | –
Cn1ncnc2c(=O)n(C)c(=O)nc1-2 | inconclusive: 44.7 µM [inhibitor, single point] | –
CN(N=O)c1cc(O)ccc1O | active: 1.41 µM | –
C=C1C(=O)O[C@H]2[C@H]1[C@H](OC(=O)CC(=O)O[C@@H]1C[C@@H](C)[C@@H]3C=CC(=O)[C@@]3(C)[C@H]3OC(=O)C(=C)[C@H]13)C[C@@H](C)[C@H]1C=CC(=O)[C@]12C | – | inactive: -3.84%
O=C(/C=C/c1ccc(Cl)cc1)N[C@@]12CCC(=O)[C@@H]3Oc4c(O)ccc5c4[C@@]31CCN(CC1CC1)C2C5 | – | inactive: 19.1%
c1cc2cc(c1)C[n+]1ccc(c3ccccc31)NCc1ccc(cc1)CNc1cc[n+](c3ccccc13)C2 | inconclusive: 15.8 µM [inhibitor, single point] | –
NCC(CC(=O)O)c1ccc(Cl)s1 (stereo not given) | inconclusive: 44.7 µM [inhibitor, single point] | –
O=c1ccc2cc(O[C@H]3OC(CO)C(O)C(O)C3O)c(O)cc2o1 (stereo not given in full) | inactive | –
CCCCC/C=C\C/C=C\C/C=C\CCCCC(=O)NCCc1ccc(O)c(O)c1 | – | inactive: -0.911%
CN(Cc1ccc(OC(F)F)cc1)Cc1nc2c(Br)cc(Br)cc2c(=O)[nH]1 | inconclusive: 4.47 µM [inhibitor, single point] | –
CCOC(=O)c1c(NS(=O)(=O)c2ccccc2)n(CCCOC)c2nc3ccccc3nc12 | inconclusive: 22.4 µM [inhibitor, single point] | –
CC(C)(C)NCC(O)c1cc(Cl)c(N)c(Cl)c1 (stereo not given) | inconclusive: 4.47 µM [inhibitor, partial curve] | –
Cc1cc(C=C2C(=O)N(C)C(=S)N(C)C2=O)c(C)n1C1CCCCC1 | – | inactive: -4.76%
Cc1nc(SCC(=O)NC2CCCC2)[nH]c(=O)c1C | – | inactive: 63.8% [at 12.4 µM]
CCc1ccc(N2C(=O)NC(=O)/C(=C/c3cccn3CCOc3ccc(C)cc3)C2=O)cc1 | inconclusive: 31.6 µM [inhibitor, partial curve, poor fit] | –
